Assay results published in US20150126364A1, “1,3-DIARYL-SUBSTITUTED HETEROCYCLIC PESTICIDES” (E I DU PONT DE NEMOURS AND COMPANY, priority 2012, published 2015).
Some of these results come from one statement about several compounds together.

What was measured:
[1] = tested on: diamondback moth (Plutella xylostella); assay: Test A: control of diamondback moth on radish plant, foliar spray; type: in vivo; details: 6 days, very good to excellent control
[2] = tested on: fall armyworm (Spodoptera frugiperda); assay: Test B: control of fall armyworm on maize plant, foliar spray; type: in vivo; details: very good to excellent control

| SMILES | control efficacy: feeding damage (40% or less feeding damage and/or 100% mortality) ([1]; sprayed at 50 ppm) [%] | control efficacy: feeding damage (40% or less feeding damage and/or 100% mortality) ([2]; sprayed at 50 ppm) [%] | control efficacy: feeding damage (40% or less feeding damage and/or 100% mortality) ([2]; sprayed at 250 ppm) [%] | control efficacy: feeding damage (40% or less feeding damage and/or 100% mortality) ([1]; sprayed at 250 ppm) [%] |
| --- | --- | --- | --- | --- |
| Fc1ccc(-c2[nH]c(-c3cccc(C(F)(F)F)c3)nc2CN2CCOCC2)c(F)c1 [Compound 44, 4-[[5-(2,4-difluorophenyl)-2-[3-(trifluoromethyl)phenyl]-1H-imidazol-4-yl]methyl]morpholine] | ≤ 40 | – | – | – |
| N#CC1CCN(Cc2nn(-c3ccc(Cl)c(Cl)c3)nc2-c2ccccc2F)CC1 [Compound 51, 1-[[2-(3,4-dichlorophenyl)-5-(2-fluorophenyl)-2H-1,2,3-triazol-4-yl]methyl]-4-piperidinecarbonitrile] | ≤ 40 | ≤ 40 | – | – |
| CC(=O)NC1CCN(Cc2oc(-c3cccc(C(F)(F)F)c3)nc2-c2ccc(F)cc2)CC1 [Compound 65, N-[1-[[4-(4-fluorophenyl)-2-[3-(trifluoromethyl)phenyl]-5-oxazolyl]methyl]-4-piperidinyl]acetamide] | – | – | ≤ 40 | – |
| Cn1c(-c2cccc(C(F)(F)F)c2)nc(CN2CCOCC2)c1-c1ccc(F)cc1F (single isomer, unassigned) [Compound 49, 4-[[5-(2,4-difluorophenyl)-1-methyl-2-[3-(trifluoromethyl)phenyl]-1H-imidazol-4-yl]methyl]morpholine] | ≤ 40 | – | – | – |
| N#CC1CCN(Cc2c(-c3ccc(F)cc3F)nc3n2Cc2ccc(Cl)cc2-3)CC1 [Compound 152] | ≤ 40 | ≤ 40 | – | – |
| N#CC1CCN(Cc2c(-c3ccc(F)cc3F)nc3n2CCc2ccc(Cl)cc2-3)CC1 [Compound 151] | ≤ 40 | ≤ 40 | – | – |
| COC(=O)C1CCN(Cc2cc(-c3cccc(C(F)(F)F)c3)nn2-c2ccc(F)cc2)CC1 [Compound 6, methyl 1-[[1-(4-fluorophenyl)-3-[3-(trifluoromethyl)phenyl]-1H-pyrazol-5-yl]methyl]-4-piperidinecarboxylate] | ≤ 40 | – | – | ≤ 40 |
| N#CC1CCN(Cc2c(-c3ccc(F)cc3F)nc3n2CCc2cc(Cl)ccc2-3)CC1 [Compound 155] | ≤ 40 | ≤ 40 | – | – |
